Experimental data published in US20230293453A1, “SPERMIDINE AND USES THEREOF” (TLL THE LONGEVITY LABS GMBH, priority 2020, published 2023).
The name of at least one read-out is uncertain.

Tested on: ZSF1 obese rats
Test: Intraperitoneal glucose tolerance test (GTT), cardiometabolic syndrome model
Type: in vivo, rat
Details: 10 weeks of treatment, 1 g/kg glucose i.p., 12-h fasted, 15-120 min, compared with control (Obese), FIG. 7

NC(=O)c1cccnc1 [nicotinamide]
glucose level over time after glucose injection (also as AUC), glucose intolerance: higher compared to the control
